For four molecules, binding results are on record in paper PMC13408954.

By UniProt entry, the sequences of proteins in these tests, tags left out.
UniProt O43303: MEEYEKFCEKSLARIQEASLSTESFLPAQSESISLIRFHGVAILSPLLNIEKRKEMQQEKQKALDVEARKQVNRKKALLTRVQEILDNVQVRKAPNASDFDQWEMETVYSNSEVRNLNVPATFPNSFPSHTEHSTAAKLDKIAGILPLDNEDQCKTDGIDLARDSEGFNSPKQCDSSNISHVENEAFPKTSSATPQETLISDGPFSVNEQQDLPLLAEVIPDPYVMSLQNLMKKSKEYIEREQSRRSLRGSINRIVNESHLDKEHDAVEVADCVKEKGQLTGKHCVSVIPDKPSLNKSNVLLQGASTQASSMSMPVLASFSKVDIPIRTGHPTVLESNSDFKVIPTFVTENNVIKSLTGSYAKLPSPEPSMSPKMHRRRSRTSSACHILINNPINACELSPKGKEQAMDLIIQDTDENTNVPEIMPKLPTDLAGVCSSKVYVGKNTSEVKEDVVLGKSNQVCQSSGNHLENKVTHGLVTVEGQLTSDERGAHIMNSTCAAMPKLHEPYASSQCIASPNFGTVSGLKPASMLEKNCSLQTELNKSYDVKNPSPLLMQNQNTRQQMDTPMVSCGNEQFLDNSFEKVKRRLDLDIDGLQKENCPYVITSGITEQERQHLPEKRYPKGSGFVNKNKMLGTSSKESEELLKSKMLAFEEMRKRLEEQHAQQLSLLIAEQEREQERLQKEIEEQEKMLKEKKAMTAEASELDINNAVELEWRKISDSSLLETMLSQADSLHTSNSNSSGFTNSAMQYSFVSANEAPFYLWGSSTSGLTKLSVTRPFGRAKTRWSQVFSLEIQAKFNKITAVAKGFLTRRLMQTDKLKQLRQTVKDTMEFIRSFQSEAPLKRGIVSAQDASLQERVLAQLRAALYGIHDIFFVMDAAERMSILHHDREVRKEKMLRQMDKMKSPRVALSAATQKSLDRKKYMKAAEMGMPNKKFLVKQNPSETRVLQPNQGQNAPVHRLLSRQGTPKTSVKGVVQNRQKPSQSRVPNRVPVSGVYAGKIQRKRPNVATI
UniProt O95714: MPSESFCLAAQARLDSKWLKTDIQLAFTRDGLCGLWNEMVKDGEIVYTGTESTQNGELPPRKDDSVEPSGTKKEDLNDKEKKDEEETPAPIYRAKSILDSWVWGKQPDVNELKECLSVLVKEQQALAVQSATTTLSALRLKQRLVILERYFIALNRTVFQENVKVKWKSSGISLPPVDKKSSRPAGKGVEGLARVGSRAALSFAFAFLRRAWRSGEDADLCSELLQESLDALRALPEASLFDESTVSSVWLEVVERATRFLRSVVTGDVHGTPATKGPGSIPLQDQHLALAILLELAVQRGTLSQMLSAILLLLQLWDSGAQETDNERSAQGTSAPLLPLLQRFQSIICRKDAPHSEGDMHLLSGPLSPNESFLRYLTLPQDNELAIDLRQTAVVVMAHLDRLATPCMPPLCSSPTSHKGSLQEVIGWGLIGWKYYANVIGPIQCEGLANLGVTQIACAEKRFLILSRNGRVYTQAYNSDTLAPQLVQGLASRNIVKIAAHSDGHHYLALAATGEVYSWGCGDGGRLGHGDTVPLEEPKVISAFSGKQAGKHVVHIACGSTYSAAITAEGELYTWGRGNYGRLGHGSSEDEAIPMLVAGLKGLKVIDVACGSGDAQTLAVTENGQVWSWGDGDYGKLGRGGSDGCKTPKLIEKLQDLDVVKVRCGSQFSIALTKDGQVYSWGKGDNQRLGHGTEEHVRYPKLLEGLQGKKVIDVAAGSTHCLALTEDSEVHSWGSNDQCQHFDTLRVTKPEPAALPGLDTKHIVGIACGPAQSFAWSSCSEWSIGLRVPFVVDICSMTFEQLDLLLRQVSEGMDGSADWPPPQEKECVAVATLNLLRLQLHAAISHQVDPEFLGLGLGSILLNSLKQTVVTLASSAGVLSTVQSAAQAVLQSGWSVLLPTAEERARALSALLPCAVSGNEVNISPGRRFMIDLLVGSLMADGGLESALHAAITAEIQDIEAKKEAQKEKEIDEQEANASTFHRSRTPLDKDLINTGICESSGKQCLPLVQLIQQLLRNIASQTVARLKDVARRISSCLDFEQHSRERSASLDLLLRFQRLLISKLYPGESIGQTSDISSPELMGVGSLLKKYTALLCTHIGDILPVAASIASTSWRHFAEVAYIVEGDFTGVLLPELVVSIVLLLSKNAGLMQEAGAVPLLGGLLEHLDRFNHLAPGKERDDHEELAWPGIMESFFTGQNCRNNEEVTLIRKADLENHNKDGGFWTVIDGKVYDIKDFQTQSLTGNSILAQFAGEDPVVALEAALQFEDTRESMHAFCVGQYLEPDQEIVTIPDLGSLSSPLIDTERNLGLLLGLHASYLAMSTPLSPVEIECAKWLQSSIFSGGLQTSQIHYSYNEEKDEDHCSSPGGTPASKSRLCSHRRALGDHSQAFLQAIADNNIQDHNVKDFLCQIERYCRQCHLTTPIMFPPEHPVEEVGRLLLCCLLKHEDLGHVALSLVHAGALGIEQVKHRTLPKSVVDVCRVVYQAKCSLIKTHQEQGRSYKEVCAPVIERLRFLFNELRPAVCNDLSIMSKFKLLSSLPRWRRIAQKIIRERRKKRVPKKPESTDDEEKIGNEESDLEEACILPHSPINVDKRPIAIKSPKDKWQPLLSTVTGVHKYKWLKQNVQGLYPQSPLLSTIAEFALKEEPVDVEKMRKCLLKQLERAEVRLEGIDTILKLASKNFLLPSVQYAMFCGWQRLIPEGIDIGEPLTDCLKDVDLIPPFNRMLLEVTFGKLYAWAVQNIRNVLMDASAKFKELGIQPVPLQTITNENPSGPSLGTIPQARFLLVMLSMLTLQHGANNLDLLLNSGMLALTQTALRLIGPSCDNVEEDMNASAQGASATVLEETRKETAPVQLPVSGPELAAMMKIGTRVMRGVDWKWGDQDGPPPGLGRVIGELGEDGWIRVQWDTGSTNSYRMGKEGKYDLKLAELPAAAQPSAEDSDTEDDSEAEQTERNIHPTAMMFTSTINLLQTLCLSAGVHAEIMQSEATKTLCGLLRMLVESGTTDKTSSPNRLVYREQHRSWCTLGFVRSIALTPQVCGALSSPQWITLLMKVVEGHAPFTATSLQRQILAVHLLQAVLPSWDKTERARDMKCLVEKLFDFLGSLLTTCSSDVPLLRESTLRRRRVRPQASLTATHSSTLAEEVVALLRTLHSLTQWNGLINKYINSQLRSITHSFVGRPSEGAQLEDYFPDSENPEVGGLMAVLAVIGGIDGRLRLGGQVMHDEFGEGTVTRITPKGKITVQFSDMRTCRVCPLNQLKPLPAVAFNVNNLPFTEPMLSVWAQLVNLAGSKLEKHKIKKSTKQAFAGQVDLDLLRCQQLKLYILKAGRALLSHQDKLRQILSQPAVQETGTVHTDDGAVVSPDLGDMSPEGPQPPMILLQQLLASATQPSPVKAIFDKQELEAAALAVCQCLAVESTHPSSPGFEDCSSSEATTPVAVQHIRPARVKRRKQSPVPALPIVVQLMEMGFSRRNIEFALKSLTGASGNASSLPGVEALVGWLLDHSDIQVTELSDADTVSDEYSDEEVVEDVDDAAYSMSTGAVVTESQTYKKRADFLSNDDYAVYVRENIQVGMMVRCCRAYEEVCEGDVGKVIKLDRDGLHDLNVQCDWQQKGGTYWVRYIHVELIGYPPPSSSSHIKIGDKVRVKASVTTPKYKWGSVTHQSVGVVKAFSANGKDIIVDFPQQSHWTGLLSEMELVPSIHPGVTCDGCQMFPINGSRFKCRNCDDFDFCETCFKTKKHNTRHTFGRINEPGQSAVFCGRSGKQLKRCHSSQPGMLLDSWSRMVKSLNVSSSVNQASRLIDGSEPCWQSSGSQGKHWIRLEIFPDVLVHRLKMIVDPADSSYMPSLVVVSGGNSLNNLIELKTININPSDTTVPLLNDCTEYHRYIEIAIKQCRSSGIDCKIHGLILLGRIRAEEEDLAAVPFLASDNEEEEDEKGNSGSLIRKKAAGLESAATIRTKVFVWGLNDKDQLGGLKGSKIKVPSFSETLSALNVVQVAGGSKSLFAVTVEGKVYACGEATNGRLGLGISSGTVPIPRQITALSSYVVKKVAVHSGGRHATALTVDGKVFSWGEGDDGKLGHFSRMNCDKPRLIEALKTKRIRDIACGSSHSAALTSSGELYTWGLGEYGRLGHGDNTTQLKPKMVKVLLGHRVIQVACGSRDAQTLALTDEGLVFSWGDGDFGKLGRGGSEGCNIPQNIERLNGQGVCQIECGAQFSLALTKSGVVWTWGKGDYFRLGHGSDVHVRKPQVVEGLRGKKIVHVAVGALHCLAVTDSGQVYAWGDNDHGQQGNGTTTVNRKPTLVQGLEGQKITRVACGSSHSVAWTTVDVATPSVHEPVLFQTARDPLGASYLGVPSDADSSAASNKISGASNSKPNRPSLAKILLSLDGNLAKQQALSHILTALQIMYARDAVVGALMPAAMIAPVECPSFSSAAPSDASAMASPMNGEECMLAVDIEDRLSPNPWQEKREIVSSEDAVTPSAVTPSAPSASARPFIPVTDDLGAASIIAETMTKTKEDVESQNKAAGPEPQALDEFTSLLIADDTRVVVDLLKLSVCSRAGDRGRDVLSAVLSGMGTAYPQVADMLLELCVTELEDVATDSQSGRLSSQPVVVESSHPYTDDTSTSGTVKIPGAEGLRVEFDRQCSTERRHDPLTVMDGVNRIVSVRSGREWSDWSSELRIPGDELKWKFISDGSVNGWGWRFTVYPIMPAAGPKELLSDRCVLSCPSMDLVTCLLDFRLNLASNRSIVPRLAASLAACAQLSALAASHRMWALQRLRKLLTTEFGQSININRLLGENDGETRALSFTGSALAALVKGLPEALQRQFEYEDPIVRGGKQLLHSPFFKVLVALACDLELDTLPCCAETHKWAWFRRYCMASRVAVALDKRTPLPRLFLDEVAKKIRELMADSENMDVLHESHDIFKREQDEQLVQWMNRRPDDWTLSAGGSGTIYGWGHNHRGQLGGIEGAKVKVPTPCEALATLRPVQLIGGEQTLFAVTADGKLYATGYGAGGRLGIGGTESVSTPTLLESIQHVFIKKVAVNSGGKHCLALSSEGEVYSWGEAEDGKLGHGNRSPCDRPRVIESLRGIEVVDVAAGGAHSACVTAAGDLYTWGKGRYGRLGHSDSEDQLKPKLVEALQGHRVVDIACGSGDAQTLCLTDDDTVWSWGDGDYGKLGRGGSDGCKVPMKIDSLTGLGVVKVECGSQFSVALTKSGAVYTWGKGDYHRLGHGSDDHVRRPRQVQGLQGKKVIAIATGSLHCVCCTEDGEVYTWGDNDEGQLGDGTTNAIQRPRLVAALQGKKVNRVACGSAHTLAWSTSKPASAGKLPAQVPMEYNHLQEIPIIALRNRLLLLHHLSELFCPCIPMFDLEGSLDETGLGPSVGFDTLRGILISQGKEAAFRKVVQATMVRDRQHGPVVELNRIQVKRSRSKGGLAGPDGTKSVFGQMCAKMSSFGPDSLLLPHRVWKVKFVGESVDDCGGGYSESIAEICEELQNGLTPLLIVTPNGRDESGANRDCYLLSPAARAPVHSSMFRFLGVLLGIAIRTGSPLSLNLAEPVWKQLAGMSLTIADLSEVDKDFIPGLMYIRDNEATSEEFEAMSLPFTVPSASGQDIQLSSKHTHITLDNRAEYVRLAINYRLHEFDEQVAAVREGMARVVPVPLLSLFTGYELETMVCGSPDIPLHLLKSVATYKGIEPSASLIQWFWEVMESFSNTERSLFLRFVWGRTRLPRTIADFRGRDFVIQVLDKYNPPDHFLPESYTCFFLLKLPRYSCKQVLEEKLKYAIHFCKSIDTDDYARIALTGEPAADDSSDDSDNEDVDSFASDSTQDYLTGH

These are yes or no findings as the source states them, for the method shown. Binding seen in cells or lysates may run through a third protein. A yes stands for co-enrichment or nearness to the bait. Other partners may have been found.

For one assay, the target named is LAP-CP110 (UniProt O43303). In words: affinity purification with mass spectrometry; 293T cells stably expressing LAP, LAP-CP110 or LAP-EHD1, serum-starved 3 h; lysis in 50 mM Tris-HCl pH 7.4, 150 mM NaCl, 1% Triton-X100, 10% glycerol; GFP-Trap resin, 2 h in a cold room; LC-MS/MS; n = 1 for LAP-EHD1 and LAP-CP110, n = 2 for LAP.
The target of a further assay is T1, LAP-EHD1 (UniProt Q9H4M9).
T1 sequence: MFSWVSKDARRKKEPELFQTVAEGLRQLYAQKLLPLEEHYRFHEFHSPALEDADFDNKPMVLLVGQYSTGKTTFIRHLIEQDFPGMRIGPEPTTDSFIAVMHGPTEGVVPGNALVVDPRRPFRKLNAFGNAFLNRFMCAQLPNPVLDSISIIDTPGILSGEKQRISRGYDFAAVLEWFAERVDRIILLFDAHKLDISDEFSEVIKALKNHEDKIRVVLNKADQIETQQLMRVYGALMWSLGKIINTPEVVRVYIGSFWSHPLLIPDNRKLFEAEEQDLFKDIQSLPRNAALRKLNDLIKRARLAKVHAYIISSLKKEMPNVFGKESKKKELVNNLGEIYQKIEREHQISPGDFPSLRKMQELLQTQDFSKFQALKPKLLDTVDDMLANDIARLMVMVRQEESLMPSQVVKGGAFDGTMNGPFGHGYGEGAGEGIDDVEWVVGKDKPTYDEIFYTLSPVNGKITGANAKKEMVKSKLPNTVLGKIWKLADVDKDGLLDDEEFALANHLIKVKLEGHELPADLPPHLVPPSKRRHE
The description is as above.

Consider CEP290 (from UniProt O15078 1-2479), for which the binding result in the assay with LAP-CP110 is “binds”.
In the case of “HERC2 (from UniProt O95714 1-4834) (enzyme)”, the binding entry with LAP-EHD1 and with LAP-CP110 was “binds” throughout.
As to NEURL4 (from UniProt Q96JN8 1-1562), the binding entry in the assay with LAP-CP110 was “binds”.

B1: EHD1 (endogenous) (protein, UniProt Q9H4M9 1-534)
chain: T1 sequence
For B1, the binding result with LAP-CP110 is on record as “binds”.
